Among the data in the odorant receptor screen of Mainland et al. (2015) are odorant receptor activation values, retold here.

Structures are written as SMILES. Where “and” joins values, the source holds several entries; their conditions need not be identical. Equal values may be shown once. Some of the results follow. Each value is one well over the wells without odorant, computed here; the data are noisy.

The test system of this assay is OR6P1 clone 1034. The assay is described as follows: odorant receptor activation (CRE luciferase / Renilla) (fold of no-odor wells); higher = more activation. Conditions: 100 µM.
For `CCCCCCCCCCC=O` [undecanal], the odorant receptor activation stood at 1.21.
In the case of `CC1COCc2cc3c(cc21)C(C)(C)C(C)C3(C)C` (centres undefined) [galaxolide] it was 2.54.
Turning to `CCCCCC(C)=O` [2-heptanone], the odorant receptor activation was found to be 0.862.
For `CC(C)C(=O)O` [isobutyric acid], the odorant receptor activation amounted to 0.788.
In the case of `O=C1CCCCC1` [Cyclohexanone] it was 0.849.
In the case of `CC(C)CCC(=O)O` [4-methylvaleric acid] it was 1.53; in that of `CCCCCOC(C)=O` [n-amyl acetate], 1.41.
In the case of `CC12C=CCC1C1CCC3=CC(=O)CCC3(C)C1CC2` (centres undefined) [androstadienone] it was 0.931; in that of `CC(=O)OC(C)(C)C1CC=C(C)CC1` (centres undefined) [terpinyl acetate], 1.44; in that of `CC=Cc1ccc(O)c(OC)c1` [isoeugenol], 0.827.
`CCCC(=O)O` [butyric acid]: the odorant receptor activation was determined as 1.54.
In the case of `C=CCSCC=C` [diallyl sulfide] it was 0.882; in that of `CCCCCCC=O` [heptaldehyde], 1.82 and 0.998; in that of `CCCCCCCCCC=O` [decyl aldehyde], 1.02.
